This is an account of results in paper PMC7445179.

By UniProt entry, the sequences of proteins in these tests, tags left out.
UniProt Q09472: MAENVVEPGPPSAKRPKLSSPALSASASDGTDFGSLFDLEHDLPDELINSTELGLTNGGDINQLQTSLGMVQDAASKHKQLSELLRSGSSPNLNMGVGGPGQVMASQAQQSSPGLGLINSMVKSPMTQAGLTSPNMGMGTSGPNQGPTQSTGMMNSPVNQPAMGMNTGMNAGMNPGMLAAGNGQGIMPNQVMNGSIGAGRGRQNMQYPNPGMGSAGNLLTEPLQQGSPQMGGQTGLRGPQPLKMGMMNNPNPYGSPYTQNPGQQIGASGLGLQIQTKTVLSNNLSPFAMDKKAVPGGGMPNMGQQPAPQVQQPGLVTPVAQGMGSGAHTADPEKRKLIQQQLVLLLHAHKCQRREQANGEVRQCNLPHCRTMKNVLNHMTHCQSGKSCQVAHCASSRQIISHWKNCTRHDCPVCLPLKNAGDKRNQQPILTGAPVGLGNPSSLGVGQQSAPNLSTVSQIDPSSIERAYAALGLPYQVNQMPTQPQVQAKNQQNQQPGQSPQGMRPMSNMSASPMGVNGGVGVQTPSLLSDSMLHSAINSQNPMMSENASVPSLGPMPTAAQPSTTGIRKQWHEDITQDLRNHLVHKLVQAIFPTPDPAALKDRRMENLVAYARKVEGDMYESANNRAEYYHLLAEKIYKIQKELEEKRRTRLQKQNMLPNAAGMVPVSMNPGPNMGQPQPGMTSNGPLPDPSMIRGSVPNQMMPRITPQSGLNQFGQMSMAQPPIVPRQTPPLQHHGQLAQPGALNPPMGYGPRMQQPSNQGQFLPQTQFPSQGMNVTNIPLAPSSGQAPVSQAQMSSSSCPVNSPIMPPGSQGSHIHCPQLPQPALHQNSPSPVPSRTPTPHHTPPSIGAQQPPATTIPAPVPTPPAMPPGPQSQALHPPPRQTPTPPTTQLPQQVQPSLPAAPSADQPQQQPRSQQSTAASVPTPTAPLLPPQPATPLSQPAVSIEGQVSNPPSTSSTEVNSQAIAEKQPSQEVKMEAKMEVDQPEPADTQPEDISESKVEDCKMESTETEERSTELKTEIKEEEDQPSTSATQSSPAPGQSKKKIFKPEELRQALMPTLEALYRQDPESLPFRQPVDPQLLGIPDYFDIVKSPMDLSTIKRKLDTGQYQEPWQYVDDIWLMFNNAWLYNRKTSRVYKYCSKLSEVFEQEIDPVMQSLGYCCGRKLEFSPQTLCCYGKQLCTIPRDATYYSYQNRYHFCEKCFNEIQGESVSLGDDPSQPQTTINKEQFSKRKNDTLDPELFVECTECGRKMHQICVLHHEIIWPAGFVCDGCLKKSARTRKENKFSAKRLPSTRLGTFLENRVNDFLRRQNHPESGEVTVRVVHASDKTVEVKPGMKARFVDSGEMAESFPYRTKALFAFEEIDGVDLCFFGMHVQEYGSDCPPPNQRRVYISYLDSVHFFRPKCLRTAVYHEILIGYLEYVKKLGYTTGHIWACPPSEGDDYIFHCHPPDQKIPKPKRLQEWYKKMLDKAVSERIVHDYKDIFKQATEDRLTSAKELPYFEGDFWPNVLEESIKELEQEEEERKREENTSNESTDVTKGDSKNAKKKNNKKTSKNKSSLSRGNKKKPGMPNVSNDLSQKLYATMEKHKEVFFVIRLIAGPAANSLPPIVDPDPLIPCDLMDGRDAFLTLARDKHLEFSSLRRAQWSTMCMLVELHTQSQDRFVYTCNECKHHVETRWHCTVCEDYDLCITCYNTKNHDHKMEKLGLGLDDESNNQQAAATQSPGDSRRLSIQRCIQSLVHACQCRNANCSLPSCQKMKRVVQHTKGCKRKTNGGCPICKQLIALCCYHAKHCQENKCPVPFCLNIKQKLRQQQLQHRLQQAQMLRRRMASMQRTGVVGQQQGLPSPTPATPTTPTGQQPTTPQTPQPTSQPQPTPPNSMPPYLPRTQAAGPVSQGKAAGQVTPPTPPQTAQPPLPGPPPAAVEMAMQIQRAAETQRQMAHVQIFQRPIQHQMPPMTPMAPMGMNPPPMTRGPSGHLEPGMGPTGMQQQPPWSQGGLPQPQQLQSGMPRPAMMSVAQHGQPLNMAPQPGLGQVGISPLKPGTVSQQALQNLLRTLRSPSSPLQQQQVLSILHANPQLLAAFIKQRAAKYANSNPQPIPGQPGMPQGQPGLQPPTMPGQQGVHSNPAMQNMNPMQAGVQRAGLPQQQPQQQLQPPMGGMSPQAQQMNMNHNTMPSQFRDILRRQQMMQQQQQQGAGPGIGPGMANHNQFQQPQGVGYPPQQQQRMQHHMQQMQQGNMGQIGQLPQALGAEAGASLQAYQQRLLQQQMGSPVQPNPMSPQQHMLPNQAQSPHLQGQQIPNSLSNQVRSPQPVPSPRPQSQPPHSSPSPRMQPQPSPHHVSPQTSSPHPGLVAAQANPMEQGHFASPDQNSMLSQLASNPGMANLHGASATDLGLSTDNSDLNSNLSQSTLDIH
UniProt Q13616: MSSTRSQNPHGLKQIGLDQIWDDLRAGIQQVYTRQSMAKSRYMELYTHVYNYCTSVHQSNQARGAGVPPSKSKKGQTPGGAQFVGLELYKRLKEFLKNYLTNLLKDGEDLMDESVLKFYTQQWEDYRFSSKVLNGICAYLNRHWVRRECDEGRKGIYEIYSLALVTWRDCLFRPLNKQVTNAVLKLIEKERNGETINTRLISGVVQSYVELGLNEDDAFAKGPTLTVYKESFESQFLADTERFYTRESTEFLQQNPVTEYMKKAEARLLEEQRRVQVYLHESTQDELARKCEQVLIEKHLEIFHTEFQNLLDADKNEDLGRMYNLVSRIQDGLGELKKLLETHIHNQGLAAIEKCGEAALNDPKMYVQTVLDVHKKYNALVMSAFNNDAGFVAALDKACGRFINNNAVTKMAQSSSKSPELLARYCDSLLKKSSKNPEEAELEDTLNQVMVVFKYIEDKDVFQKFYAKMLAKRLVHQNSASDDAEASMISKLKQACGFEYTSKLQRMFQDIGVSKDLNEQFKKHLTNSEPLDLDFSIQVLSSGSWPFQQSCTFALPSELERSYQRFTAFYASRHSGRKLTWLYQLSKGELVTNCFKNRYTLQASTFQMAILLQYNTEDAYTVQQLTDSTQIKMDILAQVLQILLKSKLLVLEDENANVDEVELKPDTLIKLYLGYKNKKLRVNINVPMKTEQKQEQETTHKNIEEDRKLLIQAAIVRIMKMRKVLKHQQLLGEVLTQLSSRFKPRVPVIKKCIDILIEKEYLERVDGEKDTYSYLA

No constants are given. Whether binding was seen depends on the method and setting. Binding seen in cells or lysates may run through a third protein. Some binding calls cover weakened binding; strength is not graded here.

Test [1] has as its target transcription co-activator p300 (human (endogenous in MCF7)) (UniProt Q09472). Nature of the test: co-IP; endogenous proteins in NP40 lysate of MCF7 cells, untreated or treated with 1 µM MLN4924; IP with p300 antibody, blot for ERRβ and p300; anti-IgG as negative control.
The target in test [2] is Cullin1 (human (endogenous in MCF7)) (UniProt Q13616). Nature of the test: co-IP; endogenous proteins in NP40 lysate (50 mM Tris-Cl pH 8.0, 150 mM NaCl, 1% NP40); IP with antibodies against ubiquitin or Cullin1, blot for ERRβ; anti-IgG as negative control; Fig. 1c (cell line not stated) and Fig. 3d (MCF7, untreated or 0.3 µM MLN4924 for 24 h).

B1: Estrogen-related receptor beta (ERRβ) (protein, UniProt O95718 1-433)
chain: MSSDDRHLGSSCGSFIKTEPSSPSSGIDALSHHSPSGSSDASGGFGLALGTHANGLDSPPMFAGAGLGGTPCRKSYEDCASGIMEDSAIKCEYMLNAIPKRLCLVCGDIASGYHYGVASCEACKAFFKRTIQGNIEYSCPATNECEITKRRRKSCQACRFMKCLKVGMLKEGVRLDRVRGGRQKYKRRLDSESSPYLSLQISPPAKKPLTKIVSYLLVAEPDKLYAMPPPGMPEGDIKALTTLCDLADRELVVIIGWAKHIPGFSSLSLGDQMSLLQSAWMEILILGIVYRSLPYDDKLVYAEDYIMDEEHSRLAGLLELYRAILQLVRRYKKLKVEKEEFVTLKALALANSDSMYIEDLEAVQKLQDLLHEALQDYELSQRHEEPWRTGKLLLTLPLLRQTAAKAVQHFYSVKLQGKVPMHKLFLEMLEAKV
Consider B1, for which the binding entry in test [1] and in test [2] was “binds” throughout.
